According to PubChem BioAssay AID489043 (National Center for Advancing Translational Sciences (NCATS), 2010):
This is a selection; strong and weak results do not stand in their true shares. Where no call is shown, the source filed none. Records with an inconclusive call do not appear. The source made the active and inactive calls. Calls follow the shape of the dose curve; as a rule, active = well fitted activation curve with a large enough effect; inconclusive = small, poorly fitted or top-dose-only effect; inactive = flat fitted curve, though single readings scatter.

Protein sequences, listed by entry. Tags and fused reporters are not part of them. Lines headed by an entry give the natural chain unless they say otherwise; changes in a name come on top.
UniProt Q8WXD0: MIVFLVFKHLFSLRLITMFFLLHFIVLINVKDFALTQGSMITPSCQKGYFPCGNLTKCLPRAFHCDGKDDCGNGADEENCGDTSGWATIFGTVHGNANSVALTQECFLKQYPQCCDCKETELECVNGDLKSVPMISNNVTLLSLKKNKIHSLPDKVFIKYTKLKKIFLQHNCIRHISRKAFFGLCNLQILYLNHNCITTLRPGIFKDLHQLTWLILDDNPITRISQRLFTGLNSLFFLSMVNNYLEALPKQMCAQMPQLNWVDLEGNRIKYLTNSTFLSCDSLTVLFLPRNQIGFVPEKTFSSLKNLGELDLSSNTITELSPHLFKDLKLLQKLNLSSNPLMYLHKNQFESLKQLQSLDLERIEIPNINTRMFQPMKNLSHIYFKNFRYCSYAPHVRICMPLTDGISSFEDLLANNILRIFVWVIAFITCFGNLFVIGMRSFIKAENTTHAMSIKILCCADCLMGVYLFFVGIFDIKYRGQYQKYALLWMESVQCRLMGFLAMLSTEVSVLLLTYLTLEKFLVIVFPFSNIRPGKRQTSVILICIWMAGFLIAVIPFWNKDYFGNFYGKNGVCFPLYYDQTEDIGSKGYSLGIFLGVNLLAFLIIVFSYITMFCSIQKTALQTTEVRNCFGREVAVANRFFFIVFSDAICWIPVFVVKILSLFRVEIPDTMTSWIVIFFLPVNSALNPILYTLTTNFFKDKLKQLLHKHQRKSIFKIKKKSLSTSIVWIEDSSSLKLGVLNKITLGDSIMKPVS

Molecular target: Relaxin receptor 2 (Homo sapiens) (UniProt Q8WXD0)
Assay: qHTS Assay for Agonists of the Relaxin Receptor RXFP1: RXFP2 Hit Validation; also: nearly all actives have a fitted effect of over 65% in size;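 as to activation: 0% = buffer only basal cAMP and 100% = 29 nM porcine relaxin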
Details: HEK293 RXFP2 cAMP TR-FRET, 30 min; activation: at 115 µM (top of the series)
Description: NIH Chemical Genomics Center [NCGC] NIH Molecular Libraries Probe Production Centers Network [MLPCN] MLPCN Grant: R03 MH085705-01A1 Assay Submitter (PI): Alexander Agoulnik NCGC Assay Overview: The relaxin hormone is involved in the variety of biological functions in normal tissues and diseases. The role of relaxin is well-established in female reproduction and parturition, mammary gland and endometrial development, maintenance of myometrial quiescence during pregnancy. Relaxin signaling through its G protein-coupled receptor (GPCR) RXFP1 results in ECM remodeling through regulation of collagen deposition, cell invasiveness, proliferation and overall tissue homeostasis. […] RXFP1 activation was assayed by changes in cAMP levels as detected with a time-resolved fluorescence energy transfer (TR-FRET) cAMP detection kit. […]
NCGC Assay Protocol Summary: This is a cell-based assay for cAMP second messenger response to screen for agonists of the RXFP2 receptor. […] The cells were lysed and the cAMP levels were measured with a TR-FRET cAMP kit. […] The EC50 values were determined from concentration-response data modeled with the standard Hill equation 1536-well assay protocol for the HEK293 RXFP2 cAMP assay: (1) Add 3 ul HEK293 RXFP2 cell culture. […]
Potency is read from the fitted curve at half-maximal effect.

For `COc1ccc(-n2nc(C(=O)NCC(=O)NCCCN3CCOCC3)c3ccccc3c2=O)cc1`, the activation was 47.2%.
With `Cc1cc(C)n2nc(C(=O)Nc3ccc4c(c3)OCCO4)nc2n1` the Potency was active: 6.9 µM.
